Results are given in words; binding and its absence hold for the method and conditions named. In cells and extracts the contact can be indirect. For some of these results: A result given as binding can be weak or reduced; the word gives no strength. Tags and fused reporters may be left off the sequences shown.
Key:
FLAG-KIN-4 (C. elegans) = test: co-IP; HEK293T cells; FLAG-KIN-4 immunoprecipitated, HA-DAF-18 detected by immunoblotting
[1] = target: GST-fused N-terminal KIN-4 fragment [N] (C. elegans); test: pull-down; GST pull-down; GST-fused KIN-4 fragments or PDZ domain as bait, HA- or FLAG-tagged DAF-18 as prey; details in the Supporting Information
[2] = target: GST-fused kinase domain-containing KIN-4 middle fragment [Mid] (C. elegans); test: as above
[3] = target: GST-fused PDZ domain-containing KIN-4 C-terminal fragment [C] (C. elegans); test: as above
[4] = target: GST-fused KIN-4 PDZ domain (C. elegans); test: as above

| Binder | binding (FLAG-KIN-4 (C. elegans)) | binding [1] | binding [2] | binding [3] | binding [4] |
| --- | --- | --- | --- | --- | --- |
| HA-DAF-18 (protein, UniProt G5EE01 1-962) MVTPPPDVPSTSTRSMARDLQENPNRQPGEPRVSEPYHNSIVERIRHIFRTAVSSNRCRTEYQNIDLDCAYITDRIIAIGYPATGIEANFRNSKVQTQQFLTRRHGKGNVKVFNLRGGYYYDADNFDGNVICFDMTDHHPPSLELMAPFCREAKEWLEADDKHVIAVHCKAGKGRTGVMICALLIYINFYPSPRQILDYYSIIRTKNNKGVTIPSQRRYIYYYHKLRERELNYLPLRMQLIGVYVERPPKTWGGGSKIKVEVGNGSTILFKPDPLIISKSNHQRERATWLNNCDTPNEFDTGEQKYHGFVSKRAYCFMVPEDAPVFVEGDVRIDIREIGFLKKFSDGKIGHVWFNTMFACDGGLNGGHFEYVDKTQPYIGDDTSIGRKNGMRRNETPMRKIDPETGNEFESPWQIVNPPGLEKHITEEQAMENYTNYGMIPPRYTISKILHEKHEKGIVKDDYNDRKLPMGDKSYTESGKSGDIRGVGGPFEIPYKAEEHVLTFPVYEMDRALKSKDLNNGMKLHVVLRCVDTRDSKMMEKSEVFGNLAFHNESTRRLQALTQMNPKWRPEPCAFGSKGAEMHYPPSVRYSSNDGKYNGACSENLVSDFFEHRNIAVLNRYCRYFYKQRSTSRSRYPRKFRYCPLIKKHFYIPADTDDVDENGQPFFHSPEHYIKEQEKIDAEKAAKGIENTGPSTSGSSAPGTIKKTEASQSDKVKPATEDELPPARLPDNVRRFPVVGVDFENPEEESCEHKTVESIAGFEPLEHLFHESYHPNTAGNMLRQDYHTDSEVKIAEQEAKAFVDQLLNGQGVLQEFMKQFKVPSDNSFADYVTGQAEVFKAQIALLEQSEDFQRVQANAEEVDLEHTLGEAFERFGHVVEESNGSSKNPKALKTREQMVKETGKDTQKTRNHVLLHLEANHRVQIERRETCPELHPEDKIPRIAHFSENSFSDSNFDQAIYL | binds | no binding | no binding | binds | – |
| FLAG-tagged full-length DAF-18, wild type (protein, UniProt G5EE01 1-962) MVTPPPDVPSTSTRSMARDLQENPNRQPGEPRVSEPYHNSIVERIRHIFRTAVSSNRCRTEYQNIDLDCAYITDRIIAIGYPATGIEANFRNSKVQTQQFLTRRHGKGNVKVFNLRGGYYYDADNFDGNVICFDMTDHHPPSLELMAPFCREAKEWLEADDKHVIAVHCKAGKGRTGVMICALLIYINFYPSPRQILDYYSIIRTKNNKGVTIPSQRRYIYYYHKLRERELNYLPLRMQLIGVYVERPPKTWGGGSKIKVEVGNGSTILFKPDPLIISKSNHQRERATWLNNCDTPNEFDTGEQKYHGFVSKRAYCFMVPEDAPVFVEGDVRIDIREIGFLKKFSDGKIGHVWFNTMFACDGGLNGGHFEYVDKTQPYIGDDTSIGRKNGMRRNETPMRKIDPETGNEFESPWQIVNPPGLEKHITEEQAMENYTNYGMIPPRYTISKILHEKHEKGIVKDDYNDRKLPMGDKSYTESGKSGDIRGVGGPFEIPYKAEEHVLTFPVYEMDRALKSKDLNNGMKLHVVLRCVDTRDSKMMEKSEVFGNLAFHNESTRRLQALTQMNPKWRPEPCAFGSKGAEMHYPPSVRYSSNDGKYNGACSENLVSDFFEHRNIAVLNRYCRYFYKQRSTSRSRYPRKFRYCPLIKKHFYIPADTDDVDENGQPFFHSPEHYIKEQEKIDAEKAAKGIENTGPSTSGSSAPGTIKKTEASQSDKVKPATEDELPPARLPDNVRRFPVVGVDFENPEEESCEHKTVESIAGFEPLEHLFHESYHPNTAGNMLRQDYHTDSEVKIAEQEAKAFVDQLLNGQGVLQEFMKQFKVPSDNSFADYVTGQAEVFKAQIALLEQSEDFQRVQANAEEVDLEHTLGEAFERFGHVVEESNGSSKNPKALKTREQMVKETGKDTQKTRNHVLLHLEANHRVQIERRETCPELHPEDKIPRIAHFSENSFSDSNFDQAIYL | – | – | – | – | binds |
| FLAG-DAF-18 Δ4C (domain or fragment, UniProt G5EE01 1-958) MVTPPPDVPSTSTRSMARDLQENPNRQPGEPRVSEPYHNSIVERIRHIFRTAVSSNRCRTEYQNIDLDCAYITDRIIAIGYPATGIEANFRNSKVQTQQFLTRRHGKGNVKVFNLRGGYYYDADNFDGNVICFDMTDHHPPSLELMAPFCREAKEWLEADDKHVIAVHCKAGKGRTGVMICALLIYINFYPSPRQILDYYSIIRTKNNKGVTIPSQRRYIYYYHKLRERELNYLPLRMQLIGVYVERPPKTWGGGSKIKVEVGNGSTILFKPDPLIISKSNHQRERATWLNNCDTPNEFDTGEQKYHGFVSKRAYCFMVPEDAPVFVEGDVRIDIREIGFLKKFSDGKIGHVWFNTMFACDGGLNGGHFEYVDKTQPYIGDDTSIGRKNGMRRNETPMRKIDPETGNEFESPWQIVNPPGLEKHITEEQAMENYTNYGMIPPRYTISKILHEKHEKGIVKDDYNDRKLPMGDKSYTESGKSGDIRGVGGPFEIPYKAEEHVLTFPVYEMDRALKSKDLNNGMKLHVVLRCVDTRDSKMMEKSEVFGNLAFHNESTRRLQALTQMNPKWRPEPCAFGSKGAEMHYPPSVRYSSNDGKYNGACSENLVSDFFEHRNIAVLNRYCRYFYKQRSTSRSRYPRKFRYCPLIKKHFYIPADTDDVDENGQPFFHSPEHYIKEQEKIDAEKAAKGIENTGPSTSGSSAPGTIKKTEASQSDKVKPATEDELPPARLPDNVRRFPVVGVDFENPEEESCEHKTVESIAGFEPLEHLFHESYHPNTAGNMLRQDYHTDSEVKIAEQEAKAFVDQLLNGQGVLQEFMKQFKVPSDNSFADYVTGQAEVFKAQIALLEQSEDFQRVQANAEEVDLEHTLGEAFERFGHVVEESNGSSKNPKALKTREQMVKETGKDTQKTRNHVLLHLEANHRVQIERRETCPELHPEDKIPRIAHFSENSFSDSNFDQ | – | – | – | – | binds weakly |
| FLAG-DAF-18 Δ12C (domain or fragment, UniProt G5EE01 1-950) MVTPPPDVPSTSTRSMARDLQENPNRQPGEPRVSEPYHNSIVERIRHIFRTAVSSNRCRTEYQNIDLDCAYITDRIIAIGYPATGIEANFRNSKVQTQQFLTRRHGKGNVKVFNLRGGYYYDADNFDGNVICFDMTDHHPPSLELMAPFCREAKEWLEADDKHVIAVHCKAGKGRTGVMICALLIYINFYPSPRQILDYYSIIRTKNNKGVTIPSQRRYIYYYHKLRERELNYLPLRMQLIGVYVERPPKTWGGGSKIKVEVGNGSTILFKPDPLIISKSNHQRERATWLNNCDTPNEFDTGEQKYHGFVSKRAYCFMVPEDAPVFVEGDVRIDIREIGFLKKFSDGKIGHVWFNTMFACDGGLNGGHFEYVDKTQPYIGDDTSIGRKNGMRRNETPMRKIDPETGNEFESPWQIVNPPGLEKHITEEQAMENYTNYGMIPPRYTISKILHEKHEKGIVKDDYNDRKLPMGDKSYTESGKSGDIRGVGGPFEIPYKAEEHVLTFPVYEMDRALKSKDLNNGMKLHVVLRCVDTRDSKMMEKSEVFGNLAFHNESTRRLQALTQMNPKWRPEPCAFGSKGAEMHYPPSVRYSSNDGKYNGACSENLVSDFFEHRNIAVLNRYCRYFYKQRSTSRSRYPRKFRYCPLIKKHFYIPADTDDVDENGQPFFHSPEHYIKEQEKIDAEKAAKGIENTGPSTSGSSAPGTIKKTEASQSDKVKPATEDELPPARLPDNVRRFPVVGVDFENPEEESCEHKTVESIAGFEPLEHLFHESYHPNTAGNMLRQDYHTDSEVKIAEQEAKAFVDQLLNGQGVLQEFMKQFKVPSDNSFADYVTGQAEVFKAQIALLEQSEDFQRVQANAEEVDLEHTLGEAFERFGHVVEESNGSSKNPKALKTREQMVKETGKDTQKTRNHVLLHLEANHRVQIERRETCPELHPEDKIPRIAHFSENS | – | – | – | – | binds weakly |
